The values below come from the supplement of paper PMC10849652.

By UniProt entry, the sequences of proteins in these tests, tags left out. Where a name states a change or a piece, a line headed by the entry shows the natural chain unless it says otherwise.
UniProt P00966: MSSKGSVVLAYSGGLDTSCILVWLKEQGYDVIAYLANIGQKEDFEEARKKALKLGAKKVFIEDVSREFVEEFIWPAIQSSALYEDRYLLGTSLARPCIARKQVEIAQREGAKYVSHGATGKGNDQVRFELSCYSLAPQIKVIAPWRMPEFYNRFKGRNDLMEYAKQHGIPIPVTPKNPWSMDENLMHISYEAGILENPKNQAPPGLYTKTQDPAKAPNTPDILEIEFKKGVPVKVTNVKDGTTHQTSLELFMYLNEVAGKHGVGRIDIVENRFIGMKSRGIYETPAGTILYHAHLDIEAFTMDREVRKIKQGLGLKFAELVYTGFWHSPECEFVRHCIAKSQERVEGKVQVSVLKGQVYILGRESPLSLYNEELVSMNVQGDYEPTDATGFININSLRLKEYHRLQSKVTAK
UniProt B2RBV5: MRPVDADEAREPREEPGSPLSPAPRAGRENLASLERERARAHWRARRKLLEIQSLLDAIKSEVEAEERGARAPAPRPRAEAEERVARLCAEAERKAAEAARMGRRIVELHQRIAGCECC
UniProt P18846: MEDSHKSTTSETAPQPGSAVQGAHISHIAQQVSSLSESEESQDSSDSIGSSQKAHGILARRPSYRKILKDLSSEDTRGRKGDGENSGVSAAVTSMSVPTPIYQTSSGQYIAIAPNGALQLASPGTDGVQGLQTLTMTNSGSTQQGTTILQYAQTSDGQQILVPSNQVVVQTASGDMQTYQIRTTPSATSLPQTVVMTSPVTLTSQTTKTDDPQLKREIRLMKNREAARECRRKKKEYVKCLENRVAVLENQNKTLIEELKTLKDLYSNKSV
UniProt Q8IXJ9: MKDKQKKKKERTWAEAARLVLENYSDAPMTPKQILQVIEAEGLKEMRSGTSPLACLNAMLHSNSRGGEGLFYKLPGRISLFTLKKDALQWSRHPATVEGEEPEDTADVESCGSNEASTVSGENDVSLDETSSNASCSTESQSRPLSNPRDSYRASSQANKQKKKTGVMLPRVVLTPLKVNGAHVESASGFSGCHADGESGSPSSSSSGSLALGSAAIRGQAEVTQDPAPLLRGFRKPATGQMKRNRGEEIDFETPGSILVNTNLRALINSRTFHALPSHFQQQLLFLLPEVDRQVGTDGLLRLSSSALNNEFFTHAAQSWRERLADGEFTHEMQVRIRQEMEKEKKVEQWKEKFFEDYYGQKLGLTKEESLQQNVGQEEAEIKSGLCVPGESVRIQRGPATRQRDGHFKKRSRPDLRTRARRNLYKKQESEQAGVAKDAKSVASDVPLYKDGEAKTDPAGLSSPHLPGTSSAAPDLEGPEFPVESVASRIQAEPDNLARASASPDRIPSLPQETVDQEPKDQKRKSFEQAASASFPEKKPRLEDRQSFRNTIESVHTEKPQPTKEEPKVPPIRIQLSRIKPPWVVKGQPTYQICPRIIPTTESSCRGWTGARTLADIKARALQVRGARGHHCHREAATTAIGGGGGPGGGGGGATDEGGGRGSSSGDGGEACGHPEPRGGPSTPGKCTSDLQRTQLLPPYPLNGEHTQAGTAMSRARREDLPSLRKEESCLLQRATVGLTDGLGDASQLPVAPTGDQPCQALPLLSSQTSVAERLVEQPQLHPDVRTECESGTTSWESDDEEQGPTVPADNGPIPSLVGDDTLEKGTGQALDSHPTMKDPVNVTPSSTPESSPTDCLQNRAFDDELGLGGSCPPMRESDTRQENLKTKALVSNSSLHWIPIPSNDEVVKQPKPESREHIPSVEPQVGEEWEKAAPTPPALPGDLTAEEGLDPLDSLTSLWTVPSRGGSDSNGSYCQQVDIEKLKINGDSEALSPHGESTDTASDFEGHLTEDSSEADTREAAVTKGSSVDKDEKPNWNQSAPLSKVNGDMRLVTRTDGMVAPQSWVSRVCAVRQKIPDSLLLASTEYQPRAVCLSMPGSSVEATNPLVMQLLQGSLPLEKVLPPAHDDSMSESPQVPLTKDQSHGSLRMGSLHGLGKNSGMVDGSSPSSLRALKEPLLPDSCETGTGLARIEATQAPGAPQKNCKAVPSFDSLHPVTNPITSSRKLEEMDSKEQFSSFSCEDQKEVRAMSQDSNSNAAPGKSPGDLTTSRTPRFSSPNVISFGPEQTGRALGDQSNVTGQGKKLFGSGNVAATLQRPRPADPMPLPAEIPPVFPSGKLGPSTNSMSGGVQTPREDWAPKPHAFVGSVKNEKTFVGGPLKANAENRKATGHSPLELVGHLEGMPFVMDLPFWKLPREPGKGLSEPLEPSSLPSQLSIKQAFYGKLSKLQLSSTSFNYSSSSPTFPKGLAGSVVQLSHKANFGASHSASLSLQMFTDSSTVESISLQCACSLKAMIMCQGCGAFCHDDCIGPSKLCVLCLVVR
UniProt Q2TB18: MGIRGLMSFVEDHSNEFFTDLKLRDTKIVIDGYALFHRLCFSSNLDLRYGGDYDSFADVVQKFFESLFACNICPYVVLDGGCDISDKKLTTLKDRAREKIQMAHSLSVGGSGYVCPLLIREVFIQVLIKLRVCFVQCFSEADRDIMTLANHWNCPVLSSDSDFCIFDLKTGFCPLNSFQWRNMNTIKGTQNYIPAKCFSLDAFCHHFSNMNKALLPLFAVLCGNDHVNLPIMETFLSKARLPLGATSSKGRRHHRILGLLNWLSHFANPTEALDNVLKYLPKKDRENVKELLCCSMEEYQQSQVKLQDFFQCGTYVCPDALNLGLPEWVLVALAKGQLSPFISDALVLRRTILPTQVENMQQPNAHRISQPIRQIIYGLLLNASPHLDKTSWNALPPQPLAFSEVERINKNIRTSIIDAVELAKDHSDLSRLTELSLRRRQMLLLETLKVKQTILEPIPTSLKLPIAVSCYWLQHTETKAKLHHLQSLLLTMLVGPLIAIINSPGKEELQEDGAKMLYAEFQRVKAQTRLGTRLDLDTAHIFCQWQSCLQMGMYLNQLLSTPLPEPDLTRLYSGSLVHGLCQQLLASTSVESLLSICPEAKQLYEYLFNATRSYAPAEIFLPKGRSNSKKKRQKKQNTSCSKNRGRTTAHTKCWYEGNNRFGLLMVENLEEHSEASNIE
UniProt Q96NS5: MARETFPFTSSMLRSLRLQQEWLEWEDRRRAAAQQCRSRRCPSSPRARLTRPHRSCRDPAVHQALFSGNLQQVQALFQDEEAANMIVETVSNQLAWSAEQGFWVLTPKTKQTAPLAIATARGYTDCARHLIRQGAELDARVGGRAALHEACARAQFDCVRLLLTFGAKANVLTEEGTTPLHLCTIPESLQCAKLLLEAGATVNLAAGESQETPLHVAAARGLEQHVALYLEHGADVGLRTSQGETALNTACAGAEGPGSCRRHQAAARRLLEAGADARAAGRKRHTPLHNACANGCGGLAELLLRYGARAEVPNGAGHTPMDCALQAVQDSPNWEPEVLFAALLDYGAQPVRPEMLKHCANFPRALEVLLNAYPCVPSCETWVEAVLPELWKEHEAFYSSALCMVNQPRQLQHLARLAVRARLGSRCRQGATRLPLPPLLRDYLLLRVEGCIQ
UniProt Q96DX5: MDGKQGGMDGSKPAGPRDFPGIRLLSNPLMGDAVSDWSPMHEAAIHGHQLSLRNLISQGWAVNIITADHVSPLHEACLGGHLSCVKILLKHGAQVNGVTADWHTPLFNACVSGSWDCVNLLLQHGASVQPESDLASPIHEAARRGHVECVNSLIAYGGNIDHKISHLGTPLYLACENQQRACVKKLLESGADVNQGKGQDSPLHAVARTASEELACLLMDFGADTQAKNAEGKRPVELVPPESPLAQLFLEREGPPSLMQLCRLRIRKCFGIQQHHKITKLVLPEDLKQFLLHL
UniProt Q93050, whole entry, looked up: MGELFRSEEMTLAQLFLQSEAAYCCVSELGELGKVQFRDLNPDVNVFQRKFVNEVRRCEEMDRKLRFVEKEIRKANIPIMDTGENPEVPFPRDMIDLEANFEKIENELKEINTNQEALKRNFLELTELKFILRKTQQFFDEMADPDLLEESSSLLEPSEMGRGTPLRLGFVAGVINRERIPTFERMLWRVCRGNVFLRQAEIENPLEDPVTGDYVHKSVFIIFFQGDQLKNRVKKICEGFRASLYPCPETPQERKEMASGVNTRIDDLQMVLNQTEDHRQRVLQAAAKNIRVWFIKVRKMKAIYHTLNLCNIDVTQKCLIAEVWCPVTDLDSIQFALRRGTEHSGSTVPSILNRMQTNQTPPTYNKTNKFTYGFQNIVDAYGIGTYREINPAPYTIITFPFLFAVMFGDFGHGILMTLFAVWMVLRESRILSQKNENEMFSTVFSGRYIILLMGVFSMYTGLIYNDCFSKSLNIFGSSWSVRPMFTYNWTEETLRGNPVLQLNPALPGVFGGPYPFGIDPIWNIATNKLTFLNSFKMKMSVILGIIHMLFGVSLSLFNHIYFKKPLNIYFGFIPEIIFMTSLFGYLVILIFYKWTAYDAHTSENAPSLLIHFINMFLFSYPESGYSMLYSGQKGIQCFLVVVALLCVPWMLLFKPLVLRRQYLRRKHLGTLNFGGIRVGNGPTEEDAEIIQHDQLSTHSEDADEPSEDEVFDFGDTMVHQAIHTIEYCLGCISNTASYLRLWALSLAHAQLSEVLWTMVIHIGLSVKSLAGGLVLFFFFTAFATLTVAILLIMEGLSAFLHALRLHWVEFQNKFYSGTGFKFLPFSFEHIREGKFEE
UniProt Q2TAZ0: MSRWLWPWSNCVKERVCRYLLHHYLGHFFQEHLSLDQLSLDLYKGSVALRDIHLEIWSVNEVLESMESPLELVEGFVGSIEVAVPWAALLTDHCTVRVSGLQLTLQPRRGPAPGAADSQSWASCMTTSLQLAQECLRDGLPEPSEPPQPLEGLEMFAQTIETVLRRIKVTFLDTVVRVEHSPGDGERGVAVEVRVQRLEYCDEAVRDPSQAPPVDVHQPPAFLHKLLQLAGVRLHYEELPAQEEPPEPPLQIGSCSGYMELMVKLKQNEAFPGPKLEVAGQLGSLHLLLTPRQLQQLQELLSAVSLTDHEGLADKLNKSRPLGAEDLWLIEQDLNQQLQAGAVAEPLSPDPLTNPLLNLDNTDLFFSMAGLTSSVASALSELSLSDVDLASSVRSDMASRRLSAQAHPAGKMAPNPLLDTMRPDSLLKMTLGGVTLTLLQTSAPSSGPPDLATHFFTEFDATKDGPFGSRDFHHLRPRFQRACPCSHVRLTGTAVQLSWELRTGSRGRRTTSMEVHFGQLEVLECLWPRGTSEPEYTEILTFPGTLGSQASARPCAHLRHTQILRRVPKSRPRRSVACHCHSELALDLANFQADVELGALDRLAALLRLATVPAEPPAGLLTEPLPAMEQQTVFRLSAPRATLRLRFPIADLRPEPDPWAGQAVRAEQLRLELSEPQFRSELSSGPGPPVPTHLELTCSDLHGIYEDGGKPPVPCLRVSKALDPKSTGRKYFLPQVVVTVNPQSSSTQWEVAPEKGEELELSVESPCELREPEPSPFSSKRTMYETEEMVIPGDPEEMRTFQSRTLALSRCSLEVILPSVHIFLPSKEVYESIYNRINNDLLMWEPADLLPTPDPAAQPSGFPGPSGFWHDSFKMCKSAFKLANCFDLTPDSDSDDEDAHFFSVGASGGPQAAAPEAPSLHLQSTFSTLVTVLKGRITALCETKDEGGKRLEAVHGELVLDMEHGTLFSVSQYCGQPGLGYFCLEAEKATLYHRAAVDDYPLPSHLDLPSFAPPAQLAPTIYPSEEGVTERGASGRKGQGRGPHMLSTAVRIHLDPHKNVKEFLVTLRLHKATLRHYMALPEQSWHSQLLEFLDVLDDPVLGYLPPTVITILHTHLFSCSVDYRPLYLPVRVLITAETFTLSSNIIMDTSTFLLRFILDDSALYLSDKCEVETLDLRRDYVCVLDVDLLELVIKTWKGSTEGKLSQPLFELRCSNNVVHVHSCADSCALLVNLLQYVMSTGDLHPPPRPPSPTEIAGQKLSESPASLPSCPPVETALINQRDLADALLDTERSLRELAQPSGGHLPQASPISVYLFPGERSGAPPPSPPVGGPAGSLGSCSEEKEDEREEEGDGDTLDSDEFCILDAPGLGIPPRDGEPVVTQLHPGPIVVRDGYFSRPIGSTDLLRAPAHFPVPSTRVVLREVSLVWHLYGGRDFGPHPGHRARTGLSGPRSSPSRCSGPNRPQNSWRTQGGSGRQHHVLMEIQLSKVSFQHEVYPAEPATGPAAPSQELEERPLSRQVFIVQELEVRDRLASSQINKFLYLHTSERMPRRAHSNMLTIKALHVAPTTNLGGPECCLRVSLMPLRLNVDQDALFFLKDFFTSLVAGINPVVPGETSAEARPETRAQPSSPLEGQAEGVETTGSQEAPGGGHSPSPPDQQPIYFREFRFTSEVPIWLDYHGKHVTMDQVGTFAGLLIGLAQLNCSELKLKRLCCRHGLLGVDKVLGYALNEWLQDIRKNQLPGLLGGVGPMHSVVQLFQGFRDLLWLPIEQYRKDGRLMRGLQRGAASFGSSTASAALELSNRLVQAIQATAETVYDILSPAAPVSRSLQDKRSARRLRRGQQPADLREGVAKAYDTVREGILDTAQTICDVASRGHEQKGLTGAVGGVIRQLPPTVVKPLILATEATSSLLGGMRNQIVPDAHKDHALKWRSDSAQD

This is one part of the list.

Compound in one test: CC[C@@H]1C(=O)N(C)c2cnc(Nc3ccc(C(=O)NC4CCN(C)CC4)cc3OC)nc2N1C1CCCC1
As to the kind of experiment: log2 fold change, soluble protein after heating vs DMSO (PISA); higher = thermal stabilisation; K562 lysate, 10 uM; active = over 0.2 and 3.5 SD of the protein, either way, in both replicates (recomputed). An outline of the steps: (§1)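 Values give the log-two fold change in thermal stability against solvent controls, from duplicates. Crude K562 extract at 1 mg/mL protein, made by dounce homogenisation in PBS pH 7.4 with 1 mM MgCl2, was treated with 10 μM compound for 30 min. After 3 min heating across 48°C-58°C, aliquots were pooled, adjusted to 0.5% NP-40 at 4°C and centrifuged at 21,000xg for 90 min. The supernatant was measured by TMTpro 16plex LC-MS/MS with channel sums equalised.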
With ASS1 (UniProt P00966), the log2 fold change was inactive: 0.027.

ASNSD1 (UniProt Q9NWL6): the log2 fold change is inactive: -0.048.

As to NA (UniProt B2RBV5), the log2 fold change was inactive: 0.069.

With ATF1 (UniProt P18846), the log2 fold change is inactive: 0.084.

Regarding ATG4D (UniProt Q86TL0), the log2 fold change was inactive: 0.055.

On to ASXL1 (UniProt Q8IXJ9), for which the log2 fold change was inactive: -0.054.

As to ATF6 (UniProt P18850), the log2 fold change is inactive: -0.067.

With ATPSCKMT (UniProt Q6P4H8), the log2 fold change was inactive: 0.171.

With ATAD5 (UniProt Q96QE3), the log2 fold change is inactive: -0.045.

As to B3GNTL1 (UniProt Q67FW5), the log2 fold change is inactive: 0.023.

As to ATP5F1B (UniProt F8W079), the log2 fold change is inactive: -0.214.

Compound in another test: CC[C@@H]1C(=O)N(C)c2cnc(Nc3ccc(C(=O)N[C@H]4CC[C@H](N5CCN(CC6CC6)CC5)CC4)cc3OC)nc2N1C(C)C [volasertib]
The description is as above. In a few lines:
as §1
In the case of ASTE1 (UniProt Q2TB18), the log2 fold change was inactive: -0.1.

In the case of ASS1 (UniProt P00966), the log2 fold change was inactive: -0.065.

For ASB16 (UniProt Q96NS5), the log2 fold change is inactive: 0.069.

On to ATE1 (UniProt O95260), for which the log2 fold change is inactive: 0.002.

As for NA (UniProt B2RBV5), the log2 fold change was inactive: -0.02.

On to ATF1 (UniProt P18846), for which the log2 fold change is inactive: 0.004.

On to ASB9 (UniProt Q96DX5), for which the log2 fold change is inactive: 0.055.

Consider ASXL3 (UniProt Q9C0F0), for which the log2 fold change was inactive: 0.074.

As to B3GALNT2 (UniProt Q8NCR0), the log2 fold change was inactive: 0.102.

Consider ASXL1 (UniProt Q8IXJ9), for which the log2 fold change is inactive: 0.047.

For ATP6V0A1 (UniProt Q93050), the log2 fold change was inactive: 0.033.

In the case of ATG2A (UniProt Q2TAZ0), the log2 fold change is inactive: -0.069.

In the case of ATP1B4 (UniProt Q9UN42), the log2 fold change was inactive: -0.021.
